Results are given in words; binding and its absence hold for the method and conditions named. Binding calls can cover weak binding; strength is not graded here.
Key:
[1] = target: SBP-tagged HER3-ECD (human); experiment: ELISA-type assay (legend of FIG. 14)
[2] = target: SBP-tagged HER3-ECD (human); experiment: ELISA-type assay on plate-bound SBP-tagged HER3-ECD
[3] = target: SBP-tagged HER3-ECD (human); experiment: ELISA-type assay: SBP-tagged HER3-ECD on streptavidin plate, antibody titrated in the presence of 10 nM Europium-labeled Heregulin-beta, time-resolved fluorescence; the antibody promotes the binding of the ligand

Measured: binding

B1: anti-HER3/HER4 antibody M-05-74 (antibody, V domains shown)
VH: QVQLQQSGAELAKPGASVKMSCKTSGYTLTDYWIHWVKQRPGQGLEWIGYINPYTGYTESNQKFKDKATLTADKSSNTAYIQLSSLTSEDSAVYYCARPYYYGDYWGQGTTLTVSS
VL: QIVLTQSPAIMSASPGERVTITCSASSSVSYMHWFQQKPGTSPKLLIYSTSNLASGVPARFSGSGSGTSYSLTISRMEAEDAATYYCQQRSSYPFTFGSGTKLEIK
notes: Murine monoclonal antibody from hybridoma (culture supernatant or purified full length); also called M-074; M-5-74
binds: [1] | [2] | [3]

Reference: patent US20180118837A1 (Hoffmann-La Roche, published 2018)
